No constants are given. Whether binding was seen depends on the method and setting. Binding seen in cells or lysates may run through a third protein. Some results given as binding are weak or reduced against the parent protein; the word gives no strength.
Assays:
[1] = molecular target: TRIM47-myc-Flag (human) (UniProt Q96LD4); experiment: co-IP; semi-endogenous Co-IP: HEK293 co-transfected with TRIM47-myc-Flag or empty vector and HA-Ubiquitin; endogenous KEAP1; cells treated with DMSO, 10 µM MG132 and/or 0.1 µM MLN4924 for 4 h before lysis; Protein A/G magnetic agarose beads, +4 °C
[2] = molecular target: TRIM47-myc-Flag (human) (UniProt Q96LD4); experiment: co-IP; whole cell lysates of HEK293 co-transfected with TRIM47-myc-Flag and KEAP1-Flag; immunoprecipitated with myc antibody, Protein A/G magnetic agarose beads, +4 °C; blotted for myc (TRIM47) and KEAP1

Sequences of proteins named here, by UniProt entry; tags and fusion partners are left off.
UniProt Q96LD4: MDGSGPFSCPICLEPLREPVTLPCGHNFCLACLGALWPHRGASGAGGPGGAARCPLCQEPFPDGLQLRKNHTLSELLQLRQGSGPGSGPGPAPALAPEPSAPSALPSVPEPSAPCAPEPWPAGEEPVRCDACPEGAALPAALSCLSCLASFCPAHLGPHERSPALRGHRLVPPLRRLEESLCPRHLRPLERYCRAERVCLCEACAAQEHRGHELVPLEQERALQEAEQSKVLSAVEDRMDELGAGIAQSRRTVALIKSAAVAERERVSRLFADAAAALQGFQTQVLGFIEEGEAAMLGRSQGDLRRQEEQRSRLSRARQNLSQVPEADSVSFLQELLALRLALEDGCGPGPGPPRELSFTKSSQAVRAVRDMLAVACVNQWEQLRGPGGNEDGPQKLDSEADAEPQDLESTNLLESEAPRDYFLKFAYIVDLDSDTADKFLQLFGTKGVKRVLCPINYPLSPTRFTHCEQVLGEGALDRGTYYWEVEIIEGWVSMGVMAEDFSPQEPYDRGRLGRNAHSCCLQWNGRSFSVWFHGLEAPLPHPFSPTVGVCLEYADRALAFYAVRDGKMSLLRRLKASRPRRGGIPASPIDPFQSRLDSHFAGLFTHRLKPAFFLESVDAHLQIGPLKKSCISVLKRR
UniProt Q14145: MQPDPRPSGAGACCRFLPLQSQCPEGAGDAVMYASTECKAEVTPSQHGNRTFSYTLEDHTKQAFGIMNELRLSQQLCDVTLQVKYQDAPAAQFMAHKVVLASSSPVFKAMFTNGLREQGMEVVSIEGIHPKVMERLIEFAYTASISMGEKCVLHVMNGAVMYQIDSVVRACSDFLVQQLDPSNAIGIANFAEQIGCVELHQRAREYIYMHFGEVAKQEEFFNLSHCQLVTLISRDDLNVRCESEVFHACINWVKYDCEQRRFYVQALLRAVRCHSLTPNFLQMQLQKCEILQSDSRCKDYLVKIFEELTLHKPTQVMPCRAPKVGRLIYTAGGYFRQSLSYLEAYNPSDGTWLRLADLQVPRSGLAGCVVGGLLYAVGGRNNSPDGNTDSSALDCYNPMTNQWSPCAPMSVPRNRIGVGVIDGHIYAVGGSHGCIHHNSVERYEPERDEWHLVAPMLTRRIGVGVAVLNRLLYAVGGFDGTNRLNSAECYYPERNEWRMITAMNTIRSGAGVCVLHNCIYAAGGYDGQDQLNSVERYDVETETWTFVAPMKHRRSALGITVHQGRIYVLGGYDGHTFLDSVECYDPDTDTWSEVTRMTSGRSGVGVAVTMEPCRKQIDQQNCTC

For “KEAP1 (endogenous) (from UniProt Q14145 1-624)”, the binding [1] was “binds”.
With KEAP1-Flag (from UniProt Q14145 1-624) the binding [2] was “binds”.
